The target in one test is T1, plasmolipin (UniProt Q9Y342).
T1 sequence: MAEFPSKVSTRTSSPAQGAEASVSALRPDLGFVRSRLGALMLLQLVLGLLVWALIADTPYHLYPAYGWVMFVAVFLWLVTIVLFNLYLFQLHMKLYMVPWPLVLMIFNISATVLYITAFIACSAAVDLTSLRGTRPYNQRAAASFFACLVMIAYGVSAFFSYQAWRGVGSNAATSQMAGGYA
Put plainly: FRET or BRET. (In BRET a luciferase serves as donor, and the signal depends on an acceptor being close.)

By UniProt entry, the sequences of proteins in these tests, tags left out.
UniProt Q9BQQ3: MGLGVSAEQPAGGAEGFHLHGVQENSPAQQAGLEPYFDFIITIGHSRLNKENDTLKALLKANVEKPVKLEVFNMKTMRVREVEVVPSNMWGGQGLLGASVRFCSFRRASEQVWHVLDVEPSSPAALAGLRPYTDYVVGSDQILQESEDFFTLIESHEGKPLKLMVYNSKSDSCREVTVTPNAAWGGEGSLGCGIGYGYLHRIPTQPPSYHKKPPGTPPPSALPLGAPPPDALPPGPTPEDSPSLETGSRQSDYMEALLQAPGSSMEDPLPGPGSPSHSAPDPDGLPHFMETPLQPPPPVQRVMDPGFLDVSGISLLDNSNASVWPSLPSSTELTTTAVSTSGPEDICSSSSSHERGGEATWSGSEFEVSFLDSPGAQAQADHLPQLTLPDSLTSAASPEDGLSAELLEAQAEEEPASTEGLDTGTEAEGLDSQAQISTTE
UniProt Q9H0U4: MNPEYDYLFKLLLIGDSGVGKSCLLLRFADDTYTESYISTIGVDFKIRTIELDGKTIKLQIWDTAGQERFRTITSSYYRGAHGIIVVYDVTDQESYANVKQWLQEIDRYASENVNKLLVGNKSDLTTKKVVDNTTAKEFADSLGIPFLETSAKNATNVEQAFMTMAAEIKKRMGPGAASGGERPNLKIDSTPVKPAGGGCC

A further test addresses GRASP65-diHcRED (UniProt Q9BQQ3). Put plainly: FRET or BRET.

Results are given in words; binding and its absence hold for the method and conditions named. Binding seen in cells or lysates may run through a third protein. Some entries that bind do so weakly or less than the wild type.

“Rab1b (construct of Supplementary Fig S4) (from UniProt Q9H0U4 1-201)”: in the test with plasmolipin, the binding entry is “binds”.
Regarding “Human Rab1b-Dronpa (from UniProt Q9H0U4 1-201)”, the binding entry in the test with GRASP65-diHcRED is “binds”.

Values taken from doi:10.1101/2024.06.23.600248.
